According to article PMC5344889:
Results are given in words; binding and its absence hold for the method and conditions named. Binding can be weak; no strength is given. Tags and fused reporters may be left off the sequences shown. For some assays here: Binding seen in cells or lysates may run through a third protein.

Experiments:
[1] = biological target: T1, eIF(iso)4E-NY (PeaeIF(iso)4E attached to the N-terminal fragment of YFP) (Arachis hypogaea (peanut)); assay: split reporter; BiFC with split YFP; eIF4E/eIF(iso)4E in pEarleyGate202-NYFP, VPg/HC-Pro in pEarleyGate202-CYFP; transient expression in Arabidopsis protoplasts, 12-16 h in the dark, confocal laser-scanning microscopy
T1 sequence: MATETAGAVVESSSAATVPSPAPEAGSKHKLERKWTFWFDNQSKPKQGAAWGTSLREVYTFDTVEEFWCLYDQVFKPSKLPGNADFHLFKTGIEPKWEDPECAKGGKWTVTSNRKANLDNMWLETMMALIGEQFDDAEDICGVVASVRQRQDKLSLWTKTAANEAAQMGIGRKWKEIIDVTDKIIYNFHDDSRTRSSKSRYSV

[2] = biological target: T2, eIF4E-NY (PeaeIF4E attached to the N-terminal fragment of YFP) (Arachis hypogaea (peanut)) (UniProt K0P2S0); assay: as above
T2 sequence: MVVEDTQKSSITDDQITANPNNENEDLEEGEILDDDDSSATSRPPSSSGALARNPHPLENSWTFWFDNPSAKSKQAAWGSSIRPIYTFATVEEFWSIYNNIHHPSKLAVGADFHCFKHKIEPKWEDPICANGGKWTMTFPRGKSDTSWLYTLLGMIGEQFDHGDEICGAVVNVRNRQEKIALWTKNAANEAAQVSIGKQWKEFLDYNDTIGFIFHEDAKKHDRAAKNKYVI

[3] = biological target: T3, PeaeIF(iso)4E (peanut eukaryotic translation initiation factor (iso)4E) in the bait vector pGBKT7 (Arachis hypogaea (peanut)); assay: two-hybrid; Matchmaker Gold Yeast two-hybrid system, AH109 yeast cells; PStV VPg and HC-Pro in the prey vector pGADT7, eIF4E/eIF(iso)4E in the bait vector pGBKT7; selective medium SD/-Leu-Trp-His-Ade plus X-α-Gal, 4 days at 30°C
T3 sequence: T1 sequence

[4] = biological target: T4, PeaeIF4E (peanut eukaryotic translation initiation factor 4E) in the bait vector pGBKT7 (Arachis hypogaea (peanut)) (UniProt K0P2S0); assay: as above
T4 sequence: T2 sequence

## HC-Pro-CY (PStV HC-Pro fused to the C-terminal fragment of YFP) (Peanut stripe virus)
[1]
  binding: binds
[2]
  binding: binds

## PStV HC-Pro (helper component proteinase) in the prey vector pGADT7 (Peanut stripe virus)
[3]
  binding: binds
[4]
  binding: binds

## PStV VPg (viral protein genome-linked) in the prey vector pGADT7 (Peanut stripe virus)
[3]
  binding: binds
[4]
  binding: binds

## VPg-CY (PStV VPg fused to the C-terminal fragment of YFP) (Peanut stripe virus)
[1]
  binding: binds
[2]
  binding: binds
